Results on one sequence are retold here after publication PMC5996148.

Where “and” joins values, the source holds several entries; their conditions need not be identical. Equal entries are not always repeated. Some of the results follow. For some of these results: Construct or isoform of the protein are uncertain.

Test systems include GTF2H2 (human); GTF2H5 (human); GTF2I (human); GTF2IRD2 (human); GTPBP8 (human); GUCA1A (human); GUCY1B3 (human).
Holding throughout (assay): protein microarray (ProtoArray v5.0), streptavidin-Alexa Fluor 647
Holding throughout (conditions): 3'-biotin; 20 mM Tris (pH 7.5), 5 mM MgCl2, 100 mM KCl, 0.1% Tween-20, A/T-rich and random oligonucleotide blockers; temperature not stated; high values mean tight binding

Experiment [1] concerns GTP-binding nuclear protein Ran (human).
The target in a further experiment is T1, GYG2 (UniProt O15488).
T1 sequence: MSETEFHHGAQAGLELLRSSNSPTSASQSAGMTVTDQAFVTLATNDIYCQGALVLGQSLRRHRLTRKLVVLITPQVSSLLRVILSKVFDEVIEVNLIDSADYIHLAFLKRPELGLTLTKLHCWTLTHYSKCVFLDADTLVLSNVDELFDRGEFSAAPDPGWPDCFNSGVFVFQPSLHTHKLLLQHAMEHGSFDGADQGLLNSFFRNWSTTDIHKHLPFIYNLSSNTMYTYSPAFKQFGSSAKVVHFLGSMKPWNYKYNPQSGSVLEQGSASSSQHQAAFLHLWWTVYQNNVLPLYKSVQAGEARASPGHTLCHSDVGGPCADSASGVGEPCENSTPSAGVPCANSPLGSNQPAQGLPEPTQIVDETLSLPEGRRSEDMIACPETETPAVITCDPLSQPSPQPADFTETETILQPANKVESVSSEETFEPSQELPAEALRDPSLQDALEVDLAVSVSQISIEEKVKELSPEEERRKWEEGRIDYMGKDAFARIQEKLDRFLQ

The target of a further experiment is T2, GYPC (UniProt P04921).
T2 sequence: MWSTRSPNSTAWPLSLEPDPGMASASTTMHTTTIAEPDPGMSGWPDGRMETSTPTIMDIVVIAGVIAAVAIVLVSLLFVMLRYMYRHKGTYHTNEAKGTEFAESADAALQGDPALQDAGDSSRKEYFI

For “GGGAGGCTGAGGCAGG [G4-1 biotinylated (PQS2)]”, the binding signal in the experiment on GTF2H2 (human) is -0.305 z-score; in the experiment on GTF2H5 (human), -0.346 z-score; in the experiment with GTF2I (human) it was -0.358 z-score; in the experiment with GTF2IRD2 (human), -0.286 z-score; in [1] it was -0.304 z-score and -0.344 z-score; in the experiment on GTPBP8 (human), -0.321 z-score. In addition, the binding signal was -0.349 z-score in the experiment with GUCA1A (human), -0.299 z-score with GUCY1B3 (human), -0.341 z-score in the experiment with GYG2 and -0.348 z-score with GYPC.
